This is an account of results in publication PMC7660911.

Chains of the proteins cited; added tags and fusions are not shown.
UniProt P40337: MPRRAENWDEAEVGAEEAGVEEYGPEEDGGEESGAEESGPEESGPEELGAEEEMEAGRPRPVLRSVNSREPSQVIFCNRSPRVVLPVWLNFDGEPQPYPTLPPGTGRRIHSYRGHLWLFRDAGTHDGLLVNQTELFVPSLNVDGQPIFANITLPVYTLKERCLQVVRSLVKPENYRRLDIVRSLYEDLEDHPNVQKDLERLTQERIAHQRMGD
UniProt O60925: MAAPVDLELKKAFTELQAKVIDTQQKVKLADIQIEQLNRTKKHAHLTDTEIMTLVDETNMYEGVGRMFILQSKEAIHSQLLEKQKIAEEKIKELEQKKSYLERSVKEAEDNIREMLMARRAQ
UniProt Q99471: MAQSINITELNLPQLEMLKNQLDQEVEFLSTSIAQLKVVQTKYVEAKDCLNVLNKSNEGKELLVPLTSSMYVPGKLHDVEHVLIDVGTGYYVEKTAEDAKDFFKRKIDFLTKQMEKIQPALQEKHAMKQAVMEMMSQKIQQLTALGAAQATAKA

These are yes or no findings as the source states them, for the method shown. In cells and extracts the contact can be indirect. Some results given as binding are weak or reduced against the parent protein; the word gives no strength.

The target of the assay is GFP-tagged pVHL213 (VHL213-GFP) (human) (UniProt P40337). The assay can be described thus: co-IP; GFP-Trap MA beads on lysates of transfected HeLa cells (10 mM Tris HCl pH 7.5, 150 mM NaCl, 0.5 mM EDTA, 0.5% Nonidet P40), 90 min at 4 C; Western blot.
“Prefoldin subunit 1 (from UniProt O60925 1-122)”: the binding result is “binds”.

Consider “Prefoldin subunit 3 (from UniProt P61758-1 1-197)”, for which the binding entry is on record as “binds”.

Consider “Prefoldin subunit 5 (from UniProt Q99471 1-154)”, for which the binding entry is “binds”.
